## Primary screen of a compound library

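Phenotypic screen: M. tuberculosis growth, glucose 7H9 medium, 3 days; the read-out is not stated. Compounds at 500 µM. Higher reads as more growth inhibition (inferred: compounds with an IC50 in retests scored well above the rest). About 18,000 compounds were tested under these conditions; 7.9% (about 1,400) showed 50% or more at least once.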

Each number is a percent effect as filed. The controls that fix the scale are not given in the record; negative values are as filed. The compounds are a random part of those screened.

compound	percent effect
CC(C)(C)c1ccccc1S(=O)(=O)NCCN	-4.504%
CC(C)CN1CCN(C(=O)N(C)C)CC1	1.612%
CCn1cc(NC(=O)NC2CC(=O)N(C3CC3)C2)cn1 (stereo not given)	-1.149%
Cc1ccc(NC(=O)NCCS(=O)(=O)N(C)C)cc1Cl	80.53%
CCCNC(=O)C(C)Sc1nnc(C)s1 (stereo not given)	28.36%
COc1cc(CNC2CC2)ccc1O	20.26%
CSCC(C)(O)CNC(=O)c1cccc(N(C)C)c1 (stereo not given)	30.58%
CCc1nnsc1C(=O)NCc1cnn(C)c1	-5.44%
CC(C)(C)CCC(N)C(N)=O (stereo not given)	19.36%
COCC(C)NC(=O)c1sc(C)nc1C (stereo not given)	-8.452%
COc1ccc(F)cc1N1CCNCC1	27.71%
CNC(CO)C(C)(C)C (stereo not given)	6.175%
CCOCCN1CCCC(CNS(=O)(=O)C(C)C)C1 (stereo not given)	6.502%
O=C(NCC(O)c1ccc(Cl)cc1)Nc1ccccn1 (stereo not given)	75.71%
CC[S+]([O-])CC(=O)NCCc1nc2c(s1)CCCC2 (stereo not given)	12.92%
C=C(Br)CN1CCN(C(=O)CN2CCCC2)CC1	9.864%
CCN1CCC(O)CC1	11.8%
O=C(CSCCCN1CCOCC1)Nc1ccccc1	8.821%
Cc1cccc(NC(=O)N(C)CCS(C)(=O)=O)c1Cl	9.695%
NCCc1ccc(CO)cc1	23.57%
Cc1cc(C)n2nc(SCC(N)=O)nc2n1	-13.19%
COc1ccccc1C1CCN(C(=O)CCCN)C1 (stereo not given)	44.66%
CC1CC(C)(C)NC1=O (stereo not given)	6.21%
CCC(C)NC(=O)CSc1nc2ncc(Cl)cc2[nH]1 (stereo not given)	2.374%
O=c1[nH]ccnc1N1CCCC(O)C1 (stereo not given)	5.777%
CSc1ncccc1C(=O)N1CCC(CS(N)(=O)=O)C1 (stereo not given)	6.513%
CN(C)c1ncccc1CNC(=O)COCC1CC1	21.96%
Cc1c(Br)cnc(N)c1N	-29.97%
CN(Cc1ccccc1O)C(=O)C1CCOCC1	17.17%
Cc1cnn(CCNCc2ccc3c(c2)OCCO3)c1	79.62%
CN(C)S(=O)(=O)N1CCC(Oc2ccccc2Cl)CC1	84.12%
O=C(CCc1nc(-c2ccncc2)no1)NC1CC1	-5.435%
COc1cccc(N2CC(N)CC2=O)c1 (stereo not given)	25.09%
COc1ccccc1CNC(=O)COc1nc(C)no1	10.42%
CCOC(=O)c1cccnc1C	2.936%
CC1NCCn2c(Cl)ccc21 (stereo not given)	-26.11%
CCC(CN)CCO (stereo not given)	-0.2099%
CCCN1CCC(NC2CCC3(CC2)OCCO3)CC1	-4.535%
Cc1cc(NC2CC2)n2ncnc2n1	12.29%
CN(C)C1CCN(C(=O)CN(C)S(C)(=O)=O)CC1	8.035%
COc1ccc(CN(C)CCNS(C)(=O)=O)c(Cl)c1	28.59%
CCOc1ncccc1C(=O)Nc1nnc[nH]1	-9.231%
CNC(=O)NC(=O)CNc1cc2c(cc1Cl)OCCO2	-9.101%
CN(C)CCn1ccc(N)n1	7.661%
c1cn(CC2CCCNC2)nn1 (stereo not given)	33.65%
CC(=O)NCCNC(=O)N1CCc2sccc2C1	9.811%
CN1CCCN(C(=O)COc2ccc(F)cc2Cl)CC1	7.508%
COc1cc(CC(=O)NCCNC(C)=O)ccc1C	15.29%
CCc1nccn1CCCn1cnnc1	2.674%
CC(O)CN1CCN(Cc2ccccc2C#N)CC1 (stereo not given)	8.26%
CN(C(=O)Cc1ccncc1)C1CCOC(C)(C)C1 (stereo not given)	-0.4836%
CCS(=O)(=O)NCCCn1ccnc1C(C)C	4.805%
Cc1noc(C)c1NC(=O)NC1CCN(C)CC1	-2.847%
Cc1ccc(S(N)(=O)=O)cc1F	11.73%
CC1CN(CC(=O)Nc2ccn(C)n2)CCCO1 (stereo not given)	2.271%
CN(Cc1ccsc1)C(=O)CNC(=O)c1ccc(Br)o1	81.2%
NCCCn1nc2ccccn2c1=O	8.006%
CCS(=O)(=O)NC(c1nnc2ccccn12)C(C)C (stereo not given)	4.644%
CCn1ncnc1CNC(=O)Cn1nc(C)c(Cl)c1C	9.142%
Cc1ccc(C(=O)N(C)CC2(C)CCOCC2)cn1	12.36%
CCOC(=O)CCC(=O)c1ccc2c(c1)OCCO2	61.58%
COCCNC(=O)C1CCN1S(=O)(=O)c1ccccc1 (stereo not given)	7.826%
O=C(Nc1nccs1)C1CCCN(C(=O)NC2CC2)C1 (stereo not given)	17.07%
COc1cc(C(=O)NCCC(C)C)cc(OC)c1OC	6.718%
CN(C)Cc1nnc(-c2ccccc2)o1	42.9%
COCCNS(=O)(=O)c1ccc(C#N)cc1	2.864%
N#CCOc1ccc(NC(=O)c2ccncc2)cc1	32%
CS(=O)(=O)c1ccccc1C(=O)Nc1ccccc1	8.318%
CS(=O)(=O)Cc1ccc(C(=O)NCC2CCCO2)cc1 (stereo not given)	-1.707%
O=c1c2ccsc2ncn1CCn1cncn1	1.922%
c1cc2nnnn2nc1NCC1CCCC1	12.13%
COCc1cc(=O)[nH]c(C(C)(C)N)n1	-3.131%
CNC(=O)c1ccc(CNc2cncc(C)c2)cc1	32.83%
c1ccc(N2CCCN(c3ncccn3)CC2)nc1	45.83%
CCC(CO)NC(=O)c1cc(N(C)C)ccn1 (stereo not given)	-10.96%
CC(N)Cc1cccs1 (stereo not given)	27.95%
COC(=O)CSCC(=O)Nc1cc(F)cc(F)c1	65.44%
Cc1nccn1CCCN1C[C@H]2CC[C@@H](C1)[C@H]2N	11.64%
O=S(=O)(c1ccc2c(c1)OCCO2)N1CCCNCC1	27.11%
CSc1ccccc1NC(=O)CCn1cnc(C#N)n1	13.9%
CC(C)C(=O)Nc1ccc(CN2CCN(C)CC2)cc1	15.28%
Cc1ccccc1-c1nnc(CN2CCCS2(=O)=O)o1	27.02%
COCC(=O)NCCc1noc(-c2ccccc2)n1	27.63%
Cc1ccc(S(=O)(=O)NCc2ncc[nH]2)cc1	23.58%
CC(c1ccc(F)c(F)c1)N1CCN(CCO)C(=O)C1 (stereo not given)	45.67%

Once more, the final 8:

| compound | percent effect |
|---|---|
| `Cc1nccn1CCCN1C[C@H]2CC[C@@H](C1)[C@H]2N` | 11.64% |
| `O=S(=O)(c1ccc2c(c1)OCCO2)N1CCCNCC1` | 27.11% |
| `CSc1ccccc1NC(=O)CCn1cnc(C#N)n1` | 13.9% |
| `CC(C)C(=O)Nc1ccc(CN2CCN(C)CC2)cc1` | 15.28% |
| `Cc1ccccc1-c1nnc(CN2CCCS2(=O)=O)o1` | 27.02% |
| `COCC(=O)NCCc1noc(-c2ccccc2)n1` | 27.63% |
| `Cc1ccc(S(=O)(=O)NCc2ncc[nH]2)cc1` | 23.58% |
| `CC(c1ccc(F)c(F)c1)N1CCN(CCO)C(=O)C1` (stereo not given) | 45.67% |

Data taken from ChEMBL document CHEMBL3988442, “University of Dundee, Small-Polar-MMV Screening Library” (2021).